In the test the target is T1, recombinant human IL-1α (human, UniProt P01583 113-271).
T1 sequence: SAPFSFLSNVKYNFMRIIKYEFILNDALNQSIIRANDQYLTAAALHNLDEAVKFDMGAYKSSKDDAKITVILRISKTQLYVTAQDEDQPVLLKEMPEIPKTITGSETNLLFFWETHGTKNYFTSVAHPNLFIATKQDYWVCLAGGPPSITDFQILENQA
Description: ELISA screen of hybridoma supernatants.

Results are given in words; binding and its absence hold for the method and conditions named. Some binding calls cover weakened binding; strength is not graded here.

B1: murine anti-human IL-1α monoclonal antibody 3D12 (antibody, V domains shown)
VH: QIQLVQSGPELKKPGETVKISCKASGYTFRNYGMNWVKQAPGKDLKRMAWINTYTGESTYADDFKGRFAFSLETSASTAYLQINNLKNEDTATYFCARGIYYYGSSYAMDYWGQGTSVTVSS
VL: IQMTQTTSSLSASLGDRVTISCRASQDISNCLNWYQQKPDGTVKLLIYYTSRLHSGVPSRFSGSGSGTDYSLTISNLEQEDIATYFCQQGKTLPYAFGGGTKLEINR
As to B1, the binding entry is recorded as “binds”.

The record behind these values is patent US20110165063A1 (published 2011).
